{"source": "paper PMC12040169", "about": "(PLOS Biology, 2025)", "note": "This is one part of the list."}
{"tested_on": "T1, CTL2-GFP (C. trachomatis L2/434/Bu, GFP-expressing)", "T1 construct": "L2/434/Bu, GFP-expressing", "design": "species or system HeLa; Intracellular C. trachomatis growth in HeLa cells, bulk GFP fluorescence relative to DMSO", "conditions": "bulk GFP, single well; 28.5 h, 10 µM; inhibitor", "units": {"% of control remaining": "%"}}
{"smiles": "Cc1ncc(CN2CCCC(O)(c3ccc(F)cc3)CC2)n1C", "note": "(stereo not drawn) [CBK284836]", "% of control remaining": 111.376}
{"smiles": "CC1(C)C[C@H](NC(=O)c2cccs2)[C@@]2(CCC(=O)N3CCCC3)CC[C@](C)(O)C[C@@H]12", "note": "[CBK289042]", "% of control remaining": 89.4355}
{"smiles": "Cc1cc(Cl)ccc1NC(=O)CCC(=O)N/N=C/c1cccnc1", "note": "[CBK261945]", "% of control remaining": 90.6272}
{"smiles": "CC(C)(C)OCc1[nH]n(CCc2ccccc2)c(=O)c1Cc1c(Cl)cccc1Cl", "note": "[CBK091452]", "% of control remaining": 113.779}
{"smiles": "COc1ccc(CNC(=O)CN2C(=O)[C@@H]3CCCN3C(=O)c3ccccc32)cc1", "note": "[CBK286322]", "% of control remaining": 114.961}
{"smiles": "Cc1cc(CNS(=O)(=O)c2c(C)noc2C)no1", "note": "[CBK062261]", "% of control remaining": 108.766}
{"smiles": "O=C(NC1CCN(CC(F)(F)F)C1=O)c1cc(Cl)ccn1", "note": "(stereo not drawn) [CBK305223]", "% of control remaining": 132.033}
{"smiles": "COc1ccc2c(c1)C1(CC(=O)N(Cc3ccc(OC)c(OC)c3)C1=O)C(=O)N2C", "note": "(stereo not drawn) [CBK075157]", "% of control remaining": 95.582}
{"smiles": "Nc1cc(S(=O)(=O)C(F)(F)F)ccc1C(=O)O", "note": "[CBK286646]", "% of control remaining": 126.502}
{"smiles": "Cc1cnn(C2CCN(C(=O)CC3OCCc4ccccc43)CC2)c1", "note": "(stereo not drawn) [CBK304186]", "% of control remaining": 115.493}
{"smiles": "N#CC1=C(SCC(=O)Nc2cccc3ccccc23)NC(=O)CC1c1ccco1", "note": "(stereo not drawn) [CBK265793]", "% of control remaining": 107.894}
{"smiles": "Cc1ccc(OCC(O)Cn2c(=N)n(CCN3CCCCC3)c3ccccc32)cc1", "note": "(stereo not drawn) [CBK266375C]", "% of control remaining": 187.087}
{"smiles": "CCS(=O)(=O)Nc1ccc(C(=O)N2CCN(c3ccccc3)CC2)cc1", "note": "[CBK304345]", "% of control remaining": 127.504}
{"smiles": "Cc1cc(OCC(=O)NN2CCN(C)CC2)ccc1[N+](=O)[O-]", "note": "[CBK268136]", "% of control remaining": 104.969}
{"smiles": "CCOC(=O)Cn1ncc2c3sc(C)cc3n(CC)c2c1=O", "note": "[CBK284185]", "% of control remaining": 101.28}
{"smiles": "O=C(CCC1CCCCC1)N1CCC(c2n[nH]cc2C(=O)N2CCc3ccccc3C2)CC1", "note": "[CBK286271]", "% of control remaining": 130.714}
{"smiles": "CCCn1cc(NC(=O)NC(CC)(CO)c2ccccc2)ccc1=O", "note": "(stereo not drawn) [CBK305060]", "% of control remaining": 123.881}
{"smiles": "CC(=O)c1ccc(-c2nc(NC(=O)c3cccs3)cnc2-c2ccc(F)cc2)s1", "note": "[CBK037558]", "% of control remaining": 145.481}
{"smiles": "CN(C)S(=O)(=O)c1ccc(C(=O)C2=C(O)C(=O)N(Cc3cccnc3)C2c2ccccc2)cc1", "note": "(stereo not drawn) [CBK264667]", "% of control remaining": 95.6972}
{"smiles": "O=C(O)/C=C\\C(=O)Nc1ccc(OCC(=O)O)cc1", "note": "[CBK264449]", "% of control remaining": 94.2439}
{"smiles": "CC1CCCC(N2CCN(Cc3ccccn3)CC2)C1", "note": "(stereo not drawn) [CBK263450]", "% of control remaining": 100}
